{"source": "patent US20240277739A1", "about": "“NUTRITONAL COMPOSITIONS FOR GUT BARRIER FUNCTION” (N.V. Nutricia, priority 2021, published 2024)", "system": "infant microbiota (pooled fecal samples from 3 healthy infants)", "test": "Fermentation of galactosyllactoses by infant fecal microbiota (i-Screen anaerobic colon model)", "set-up": "species or system human", "conditions": "t = 24 h", "method": "The effect of pure 3′-GL, 4′-GL, and 6′-GL of the three galactosyllactoses functionality (pH, lactate, acetate levels) was evaluated. Beta1,3-galactosyllactose (beat3′-GL), beta1,4-galactosyllactose (beta4′-GL) and beta1,6-galactosyllactose (beta6′-GL) were obtained from Carbosynth (Berkshire, UK) Measurements of all parameters were performed after a 24-hour incubation in the high-throughput anaerobic colon model, i-Screen™ (TNO, Zeist, the Netherlands).\nFecal samples from 3 healthy infants (aged 1-4 months) were pooled and activated for 4 hours in a modified standard ileal efflux medium (pH 6.0) at 37° C. under anaerobic conditions. Next, each GL was added. After an incubation for 24 hours at 37° C. under anaerobic conditions, samples were collected for further analysis and pH levels were immediately measured using a pH meter MultiCal pH 526 (WTW, Weilheim, Germany). The samples were centrifuged at 4,000 g for 5 minutes and the supernatant was filter sterilized using 0.45 μm filters. For the SCFA analysis, a mixture of formic acid ([…]), methanol and 2-ethyl butyric acid (internal standard, 2 mg/ml in methanol) was added to the filtered supernatant. […] The levels of acetic acid and lactic acid were measured. For lactate analysis, the total of D- and L-lactate was determined the filtered supernatant by the Arena 20XL analyser. […]"}
{"substance": "Gal (beta 1-3)-Gal (beta 1-4)-Glc [beta3′-GL]", "values": [{"measurement": "pH", "setting": "3 mg/ml", "result": 5.5}, {"measurement": "pH", "setting": "9 mg/ml", "result": 4.5}]}
